Laboratory results reported in publication doi:10.1101/2025.10.22.683813 (bioRxiv, 2025).
These are yes or no findings as the source states them, for the method shown. Some binding calls cover weakened binding; strength is not graded here.

Legend:
spNC-4 N-fragment [1] = experiment: cryo-EM structure
spNC-4-ABD N-fragment = experiment: co-purification by metal-ion affinity chromatography, with SDS-PAGE
spNC-4 N-fragment [2] = experiment: as above
spNC-4-GI N-fragment = experiment: as above

binding (spNC-4 N-fragment [1]): binds
binding (spNC-4-ABD N-fragment): binds
binding (spNC-4 N-fragment [2]): binds
binding (spNC-4-GI N-fragment): binds
B1: spNC-4 C-fragment (domain or fragment)
chain: MGIEIYEGKLTAEGLRFGIVASRFNHTLVDRLVEGAIDCIVRHGGRGEDITLVRVPGAWEIPVAADELARKEDIDAVIAFGDLIRG
